The values below come from publication PMC4844700, “Rifampin phosphotransferase is an unusual antibiotic resistance kinase” (Nature Communications, 2016).

Chains of the proteins cited; added tags and fusions are not shown.
UniProt A0A0X1KHF9: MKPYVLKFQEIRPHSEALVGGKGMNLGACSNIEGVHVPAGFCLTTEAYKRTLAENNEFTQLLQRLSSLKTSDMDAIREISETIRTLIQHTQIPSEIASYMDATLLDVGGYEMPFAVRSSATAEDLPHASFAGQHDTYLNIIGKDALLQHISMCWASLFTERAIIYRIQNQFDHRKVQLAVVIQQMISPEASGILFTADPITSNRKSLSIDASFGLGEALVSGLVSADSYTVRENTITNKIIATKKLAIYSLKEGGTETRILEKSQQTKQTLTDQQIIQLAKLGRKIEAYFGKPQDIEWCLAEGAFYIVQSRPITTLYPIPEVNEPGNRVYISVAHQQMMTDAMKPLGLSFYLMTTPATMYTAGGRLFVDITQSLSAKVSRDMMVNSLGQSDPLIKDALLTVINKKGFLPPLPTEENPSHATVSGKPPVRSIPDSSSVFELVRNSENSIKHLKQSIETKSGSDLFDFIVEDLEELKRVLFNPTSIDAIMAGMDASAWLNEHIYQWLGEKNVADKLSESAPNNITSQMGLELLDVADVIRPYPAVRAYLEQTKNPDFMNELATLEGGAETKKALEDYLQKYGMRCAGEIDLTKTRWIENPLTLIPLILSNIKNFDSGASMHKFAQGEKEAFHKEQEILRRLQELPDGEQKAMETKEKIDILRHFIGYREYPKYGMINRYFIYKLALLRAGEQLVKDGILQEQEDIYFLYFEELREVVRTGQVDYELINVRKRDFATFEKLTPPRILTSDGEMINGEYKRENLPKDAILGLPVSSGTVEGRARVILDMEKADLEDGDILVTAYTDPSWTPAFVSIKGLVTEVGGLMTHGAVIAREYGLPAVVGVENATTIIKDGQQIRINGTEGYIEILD

Test [1] has as its target Rifampin phosphotransferase from Listeria monocytogenes (RPH-Lm) (L. monocytogenes str. 4b F2365). Kind of test: SAXS; both purified.
The target is the same in test [2]. As to the kind of experiment: SEC; both purified.

No constants are given. Whether binding was seen depends on the method and setting.

As for “Rifampin phosphotransferase from Listeria monocytogenes (RPH-Lm) (from UniProt A0A0X1KHF9) (enzyme)”, the binding entry in test [1] is reported as “no binding (tested: 2–6 mg ml^−1)”; in test [2], “no binding”.
